In patent US20220218690A1, “MONTELUKAST SALTS AND PHARMACEUTICAL COMPOSITIONS CONTAINING THE SAME” (GENETIC S.P.A., priority 2019, published 2022):
Read-outs that look alike come from different tables or passages of the source.

Key:
Paw mouse edema = settings: FIG. 13
[1] = system: bronchial hyperreactivity
Protocol: (§1) Mouse model of asthma. Female BALB/c mice (8 weeks: Charles River) were sensitized through subcutaneous administration of Ovalbumin (100 μg dissolved in 400 μl of AlOH3 13.5 mg/ml) on days 0 and 8, on the twenty-first day the mice were stimulated by aerosolic administration of Ovalbumin (3% for twenty minutes). The mice were sacrificed after 48 hours and the bronchi used for the evaluation of bronchial reactivity at carbachol and salbutamol. The drugs were administered intraperitoneally prior to each exposure to the allergen. […] Pulmonary tissues were harvested and used for dosage of cytokines such as IL-4 and IL-13. In addition plasma levels of IgE were measured.

IgE = settings: 0.75 mg/Kg; FIG. 18-A
Protocol: as §1

[2] = system: salbutamol-induced bronchial relaxation
Protocol: as §1

Structure (SMILES): CC(C)(O)c1ccccc1CCC(SCC1(CC(=O)O)CC1)c1cccc(C=Cc2ccc3ccc(Cl)cc3n2)c1.COc1ccc(CC(C)NCC(O)c2ccc(O)c(NC=O)c2)cc1 (stereo not shown) [Montelukast formoterol salt, N-(2-(3-formamido-4-hydroxyphenyl)-2-hydroxyethyl)-1-(4-methoxy-phenyl)propan-2-aminium-2-(1-(((1-(3-(2-(7-chloroquinolin-2-yl)vinyl)-phenyl)-3-(2-(2-hydroxypropan-2-yl)phenyl)propyl)thio-)methyl)cyclopropyl)acetate]
- anti-inflammatory effect (Paw mouse edema; 0.3 mg/kg intraperitoneal, 30 minutes before intraplantar carrageenin): significantly increased
- p vs vehicle, anti-inflammatory effect (Paw mouse edema): < 0.001
- bronchial reactivity (response to carbachol) ([1]; 0.75 mg/Kg intraperitoneal): reports the bronchial reactivity to basal values
- p vs OVA, preventing bronchial hyperreactivity ([1]; 0.3, 0.75 and 1.5 mg/Kg, FIG. 14): < 0.001
- control of bronchial hyperreactivity ([1]; 0.3, 0.75 and 1.5 mg/kg intraperitoneal prior to each allergen exposure, FIG. 14): good control of bronchial hyperreactivity, which is a dose-related effect
- p 0.75 mg/Kg vs 0.3 mg/Kg, preventing bronchial hyperreactivity ([1]; FIG. 14): < 0.001
- p 0.75 mg/Kg vs 1.5 mg/Kg, preventing bronchial hyperreactivity ([1]; FIG. 14): < 0.05
- best dose ([1]; doses 0.3, 0.75 and 1.5 mg/kg tested): 0.75 mg/kg
- p vs Formoterol, preventing bronchial hyperreactivity ([1]; salt 0.75 mg/kg vs Formoterol 0.3 mg/kg (FIG. 16)): < 0.05
- IgE plasma levels (IgE): unaffected
- control of the response to salbutamol ([2]; 0.75 mg/Kg among 0.3, 0.75, 1.5 mg/kg, FIG. 15): most effective in controlling the response to salbutamol
- p vs OVA, preserving salbutamol-induced bronchial relaxation ([2]; 0.75 mg/Kg, dose series (FIG. 15)): < 0.001
- p vs Formoterol, preserving salbutamol-induced bronchial relaxation ([2]; salt 0.75 mg/kg vs Formoterol 0.3 mg/kg, FIG. 17): < 0.001
- p vs Montelukast, preserving salbutamol-induced bronchial relaxation ([2]; salt 0.75 mg/kg vs Montelukast 0.3 mg/kg, FIG. 17): < 0.001
- reversal of Ovalbumin-induced reduction of salbutamol-induced relaxation ([2]; salt 0.75 mg/kg, FIG. 17): efficiently reverses this effect
- p vs OVA, preserving salbutamol-induced bronchial relaxation ([2]; salt 0.75 mg/kg, comparison series FIG. 17): < 0.001
